Test results taken from paper PMC7819943, “Rice protein-binding microarrays: a tool to detect cis-acting elements near promoter regions in rice”.
The list shows a part of the results.

Each sequence was assayed against T1, OsSMF1 (Oryza sativa, UniProt Q6ZLB0 1-436) (assay: protein-binding microarray (RPBM); PBS, 2% BSA, 51.3 ng/ul salmon testes DNA, 50 uM zinc acetate, 200 nM TF, 25 C, 1 h; high values mean tight binding). Conditions: protein: recombinant; tags: N-terminal polyhistidine and DsRed monomer fusion (pET32a); chain copies: 2; label: CyDye5-dUTP incorporated in the synthesized complementary strand; 3' TTTTT single-stranded linker to array surface; dsDNA, one strand shown.
T1 sequence: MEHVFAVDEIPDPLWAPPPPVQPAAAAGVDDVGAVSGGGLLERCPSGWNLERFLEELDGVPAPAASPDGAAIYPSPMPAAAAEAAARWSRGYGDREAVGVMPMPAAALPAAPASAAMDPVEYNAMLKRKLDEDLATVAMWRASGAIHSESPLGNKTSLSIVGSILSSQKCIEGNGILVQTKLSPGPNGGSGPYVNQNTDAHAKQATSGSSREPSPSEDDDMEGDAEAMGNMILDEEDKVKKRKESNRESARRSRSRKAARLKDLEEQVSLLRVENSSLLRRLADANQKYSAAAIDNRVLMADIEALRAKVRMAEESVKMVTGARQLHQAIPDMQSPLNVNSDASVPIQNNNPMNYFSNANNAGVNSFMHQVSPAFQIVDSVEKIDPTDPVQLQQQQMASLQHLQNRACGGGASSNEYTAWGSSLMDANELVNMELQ
Procedure, shortened: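 A custom Agilent array was converted to double-stranded form by primer extension with Cy5-dUTP and blocked with 2% BSA. Protein at 200 nM in PBS with 2% BSA, salmon testes DNA and 50 µM zinc acetate was applied for 1 h at 25 °C, followed by washing. The proteins were polyhistidine–DsRed N-terminal fusions of transcription factors, expressed in E. coli BL21-CodonPlus and Ni–NTA-purified. The binding signal is per-feature fluorescence intensity (arbitrary units) from an Axon 4000B scanner.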
For “GCATATTTGGACCAAGTCAACCTGCCACATCAGCATAAACCGGAGTCACCTAGTGCAG”, the binding signal was 23500 fluorescence intensity (a.u.).
With “CGCCAGGTTCGCGTCGCCGACGTGCCCTACGCCGCTGCTGCGGAGTCACCTAGTGCAG” the binding signal was 4160 fluorescence intensity (a.u.).
With “CTCGGCAACTATTCAACGAAATCCACGTGCTTCGCCACCCCGGAGTCACCTAGTGCAG” the binding signal was 5980 fluorescence intensity (a.u.).
In the case of “CTCCCACATGCTGCGCTCTGTCACCGCAACCACCGCAGCACGGAGTCACCTAGTGCAG”, the binding signal is reported as 3760 fluorescence intensity (a.u.).
In the case of “CAGTGACATGTGTGTGCTTCCCATCTGTGTACTCCAATCTCGGAGTCACCTAGTGCAG”, the binding signal is reported as 4660 fluorescence intensity (a.u.).
For “CCTTGTGTGCACTTCCCCGCGTAACCGCAGCCACCGTCACCGGAGTCACCTAGTGCAG”, the binding signal was 3230 fluorescence intensity (a.u.).
In the case of “CAAGTTATTTTACTCATTCATCACGTGTGACACATATAACCGGAGTCACCTAGTGCAG”, the binding signal is reported as 4200 fluorescence intensity (a.u.).
“CTAACTATATTTTGATTTTGCCAGCTCCGCAAAAGAATTGCGGAGTCACCTAGTGCAG” was tested, and the binding signal was 4050 fluorescence intensity (a.u.).
With “GTTAGTGCCACGTGGCGCCTTCCCATTCGACCGCCGCCCGCGGAGTCACCTAGTGCAG” the binding signal was 42100 fluorescence intensity (a.u.).
With “ACCCTGCGTGGCCATGATGTCATGGCCGGCCGGCAAGCTTCGGAGTCACCTAGTGCAG” the binding signal was 11300 fluorescence intensity (a.u.).
With “AGGCAGTGAAGATTGGAGTTGTTGGTACACGACTTCACTCCGGAGTCACCTAGTGCAG” the binding signal was 3690 fluorescence intensity (a.u.).
For “ATGCGCACGTACCACGTACACGCATGCACACGTACGTACACGGAGTCACCTAGTGCAG”, the binding signal was 5400 fluorescence intensity (a.u.).
With “CCAGTGACTGACTTGGACACGGTGCAGTCCTCCAGCTGCTCGGAGTCACCTAGTGCAG” the binding signal was 5460 fluorescence intensity (a.u.).
In the case of “CCCACCGACCATACAGACACTTGTCCCGTGCTTACATCGGCGGAGTCACCTAGTGCAG”, the binding signal is reported as 3390 fluorescence intensity (a.u.).
With “GGCGACGACATCTTGGCGCGTGTTGTGGCGACGATGGGGACGGAGTCACCTAGTGCAG” the binding signal was 3630 fluorescence intensity (a.u.).
With “ATACTAGTTTCATGCCCGCGTGTTGCTGCAGGATTTTGTGCGGAGTCACCTAGTGCAG” the binding signal was 3590 fluorescence intensity (a.u.).
With “CTCACCAAACACTGCGTGCTGACGTAATCAGCACGTACTACGGAGTCACCTAGTGCAG” the binding signal was 7760 fluorescence intensity (a.u.).
“AACTATAGACATGTAAATTTTCTTTATTGAGTCACATAATCGGAGTCACCTAGTGCAG” was tested, and the binding signal was 3820 fluorescence intensity (a.u.).
“TTCCCCTCCGGCAGCCGGCCTCCTCCAATCCATTGACCTCCGGAGTCACCTAGTGCAG” was tested, and the binding signal was 17900 fluorescence intensity (a.u.).
With “GCTTTCATATGGATCAATGTGCACGTGTTTATATGAATGCCGGAGTCACCTAGTGCAG” the binding signal was 5580 fluorescence intensity (a.u.).
With “TTCCGTGGTTGGGAGCGCGTCCACGTCGCGCGCCCCGCGTCGGAGTCACCTAGTGCAG” the binding signal was 4800 fluorescence intensity (a.u.).
“ATCTTCCTCCTCTGGGGCTGCTGAGCTGACTCCATCGATCCGGAGTCACCTAGTGCAG” was tested, and the binding signal was 3780 fluorescence intensity (a.u.).
With “CGGCGGCGGGTCAAAGCAAGCGTGGGATTAGGAGGTGGCGCGGAGTCACCTAGTGCAG” the binding signal was 3810 fluorescence intensity (a.u.).
In the case of “CTTAGCTGTATATAGGTGACGTCGATGTGTGATGGTGGAACGGAGTCACCTAGTGCAG”, the binding signal is reported as 5420 fluorescence intensity (a.u.).
In the case of “GCGCGACGCGACGTGACGCGTCCACACTATCCCTAGCATGCGGAGTCACCTAGTGCAG”, the binding signal is reported as 7810 fluorescence intensity (a.u.).
With “CCCTGCTGTTGCTGCCCCTGTGGCATATATACCCCTACTGCGGAGTCACCTAGTGCAG” the binding signal was 3800 fluorescence intensity (a.u.).
“GGGTGTGCGTTCGATGATTGGACGTAATAGTCAACGAGATCGGAGTCACCTAGTGCAG” was tested, and the binding signal was 25100 fluorescence intensity (a.u.).
For “TTAAAATGAAACTCATGGCCATGCTTAAAATGGAACGGAACGGAGTCACCTAGTGCAG”, the binding signal was 11100 fluorescence intensity (a.u.).
“GCTAGTTCATCCTGTCGCCAACGTGCCAGTCTCTGTCTGACGGAGTCACCTAGTGCAG” was tested, and the binding signal was 3770 fluorescence intensity (a.u.).
In the case of “GGAAGTTGCTACGTACCGACGCCAGCTGGACTTTGTACTCCGGAGTCACCTAGTGCAG”, the binding signal is reported as 3420 fluorescence intensity (a.u.).
With “GAATTGGGCCGAACGATCTACGTGGGCCGAATTGGGCCCACGGAGTCACCTAGTGCAG” the binding signal was 3870 fluorescence intensity (a.u.).
“AGTTCATTATCATCATGTAATGAATCATCATGAATCCAAACGGAGTCACCTAGTGCAG” was tested, and the binding signal was 3280 fluorescence intensity (a.u.).
In the case of “TGCGGATCTAATTGCCACGTAAGCGCCACGACAATGACACCGGAGTCACCTAGTGCAG”, the binding signal is reported as 16800 fluorescence intensity (a.u.).
“ACACATGTTATAGACACGTGTGGACCCACATGTTATTGAGCGGAGTCACCTAGTGCAG” was tested, and the binding signal was 7440 fluorescence intensity (a.u.).
With “AGCAGCGGTGGCTGTGGCGATACGTGGCAGGAGTGGCAACCGGAGTCACCTAGTGCAG” the binding signal was 11900 fluorescence intensity (a.u.).
With “AATGACAGACACGCCGCATCGCCCCTCGTTGGGCCGCCACCGGAGTCACCTAGTGCAG” the binding signal was 3170 fluorescence intensity (a.u.).
In the case of “ACGGCCCAAGCCAAGCACACGTCAACAAGTCTCGCGTTTCCGGAGTCACCTAGTGCAG”, the binding signal is reported as 7360 fluorescence intensity (a.u.).
With “GAGCTCTACGGCGACGTCGTGCTCCGCTTCGTCAGCCACCCGGAGTCACCTAGTGCAG” the binding signal was 3360 fluorescence intensity (a.u.).
In the case of “GAGACGACTCGCCGACCACCGTCCGTTCTACCTATAAATCCGGAGTCACCTAGTGCAG”, the binding signal is reported as 3740 fluorescence intensity (a.u.).
For “ATAATGGTTAACTTACACACTCTGCATCAGTGATCCTGGTCGGAGTCACCTAGTGCAG”, the binding signal was 3790 fluorescence intensity (a.u.).
In the case of “ATGGGATGCGAAGGAGACGTTGCCACGTTGGACGTGTGCACGGAGTCACCTAGTGCAG”, the binding signal is reported as 13900 fluorescence intensity (a.u.).
In the case of “ATTCATAGATCAGTGAATGTAGTGTATGAAGTTATAGTGGCGGAGTCACCTAGTGCAG”, the binding signal is reported as 4350 fluorescence intensity (a.u.).
